Assay [1] addresses T1, Arabidopsis thaliana LONESOME HIGHWAY (AtLHW), BiFC fusion (Arabidopsis thaliana) (UniProt Q9XIN0).
T1 sequence: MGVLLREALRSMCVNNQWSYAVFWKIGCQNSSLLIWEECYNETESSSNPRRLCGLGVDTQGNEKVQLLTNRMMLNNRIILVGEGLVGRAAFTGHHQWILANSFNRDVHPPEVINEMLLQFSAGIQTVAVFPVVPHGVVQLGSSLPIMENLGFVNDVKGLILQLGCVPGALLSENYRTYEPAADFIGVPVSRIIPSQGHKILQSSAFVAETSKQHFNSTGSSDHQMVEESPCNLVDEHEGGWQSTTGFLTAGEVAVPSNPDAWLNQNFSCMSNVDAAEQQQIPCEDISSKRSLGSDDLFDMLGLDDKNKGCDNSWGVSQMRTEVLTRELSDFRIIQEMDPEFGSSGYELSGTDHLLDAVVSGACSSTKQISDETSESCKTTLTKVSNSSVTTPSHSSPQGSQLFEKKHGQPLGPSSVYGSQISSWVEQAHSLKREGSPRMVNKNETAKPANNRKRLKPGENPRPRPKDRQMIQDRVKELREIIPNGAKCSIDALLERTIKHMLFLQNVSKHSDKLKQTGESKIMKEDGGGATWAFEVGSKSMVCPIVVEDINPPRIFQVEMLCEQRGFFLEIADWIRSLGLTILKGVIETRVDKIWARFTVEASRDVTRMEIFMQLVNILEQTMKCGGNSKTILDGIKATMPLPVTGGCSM
Briefly: split reporter.

In assay [2] the target is Arabidopsis thaliana TARGET OF MONOPTEROS 5 (AtTMO5), BiFC fusion (Arabidopsis thaliana) (UniProt Q9LS08). Briefly: split reporter.
For assay [3], the target named is T2, Arabidopsis thaliana LHW (AtLHW), FRET-FLIM construct (Arabidopsis thaliana) (UniProt Q9XIN0).
T2 sequence: T1 sequence
Briefly: FRET or BRET. A general note: Bioluminescence resonance energy transfer reports proximity on the nanometre scale.

For assay [4], the target named is Arabidopsis thaliana TMO5 (AtTMO5), FRET-FLIM construct (Arabidopsis thaliana) (UniProt Q9LS08). Briefly: FRET or BRET.

Results are given in words; binding and its absence hold for the method and conditions named. In cells and extracts the contact can be indirect. Some entries that bind do so weakly or less than the wild type. For some assays here: Where a sequence is shown, tags or fusion partners need not be part of it.

B1: Arabidopsis thaliana LONESOME HIGHWAY (AtLHW), BiFC fusion (protein, UniProt Q9XIN0 1-650)
chain: T1 sequence
For the molecule B1, the binding entry in assay [1] is reported as “no binding”.

B2: Arabidopsis thaliana TARGET OF MONOPTEROS 5 (AtTMO5), BiFC fusion (protein, UniProt Q9LS08 1-344)
chain: MYAMKEEDCLQTFHNLQDYQDQFHLHHHPQILPWSSTSLPSFDPLHFPSNPTRYSDPVHYFNRRASSSSSSFDYNDGFVSPPPSMDHPQNHLRILSEALGPIMRRGSSFGFDGEIMGKLSAQEVMDAKALAASKSHSEAERRRRERINTHLAKLRSILPNTTKTDKASLLAEVIQHMKELKRQTSQITDTYQVPTECDDLTVDSSYNDEEGNLVIRASFCCQDRTDLMHDVINALKSLRLRTLKAEIATVGGRVKNILFLSREYDDEEDHDSYRRNFDGDDVEDYDEERMMNNRVSSIEEALKAVIEKCVHNNDESNDNNNLEKSSSGGIKRQRTSKMVNRCYN
B2: the binding entry in assay [1] and in assay [2] was “binds” in each case.

B3: Arabidopsis thaliana TMO5 (AtTMO5), FRET-FLIM construct (protein, UniProt Q9LS08 1-344)
chain: B2 chain
Consider B3, for which the binding entry in assay [3] and in assay [4] was “binds” in each case.

The record behind these values is paper doi:10.1101/650358.
